Source: the supplement of paper PMC3682954
Where a name gives a salt, the structure may show the parent alone. ± gives the standard deviation of the averaged measurements. Some of the results follow. Repeats are few or missing, and single values can be far off.

Tested on: RAW 264.7
Assay: HMGB1-induced TNF-alpha production relative to HMGB1-stimulated control; higher = more TNF-alpha secretion (less inhibition)
Details: stimulus: HMGB1 5 ug/ml, 18 h
[1] = compound concentration: 1 ug/ml

SMILES | HMGB1-induced TNF-alpha production (compound concentration: 3 uM) [%] | HMGB1-induced TNF-alpha production [1] [%]
O=C(O)c1cc(O)c2c(c1)[C@H]([C@H]1c3cc(C(=O)O)cc(O)c3C(=O)c3c(O[C@@H]4O[C@H](CO)[C@@H](O)[C@H](O)[C@H]4O)cccc31)c1cccc(O[C@@H]3O[C@H](CO)[C@@H](O)[C@H](O)[C@H]3O)c1C2=O | 73.4 | 
CC(=O)Oc1cc(C(C)C)c(OCCN(C)C)cc1C [Moxisylyte hydrochoride] | 59.9 | 
CC(=O)Oc1cc(C(C)C)c(OCCN(C)C)cc1C [Moxisylyte hydrochloride] | 103 | 
CC(=O)Oc1cc(C(C)C)c(OCCN(C)C)cc1C | 80.4 | 
CC(c1cc2ccccc2s1)N(O)C(N)=O (centres undefined) | 96.1 ± 22 | 
CC(c1cc2ccccc2s1)N(O)C(N)=O (centres undefined) [Zileuton] | 101 ± 12 | 
C[C@@H]1C(=O)O[C@H]2C[C@@]34[C@H]5C[C@@H](C(C)(C)C)[C@]36[C@@H](OC(=O)[C@@H]6O)O[C@@]4(C(=O)O5)[C@]21O [Ginkgolide A] | 108 | 76.3
CC1=C(/C=C/C(C)=C/C=C/C(C)=C/C(=O)Nc2ccc(O)cc2)C(C)(C)CCC1 [Retinoic acid p-hydroxyanilide] | 103 | 
CC1=C(/C=C/C(C)=C/C=C/C(C)=C/C(=O)Nc2ccc(O)cc2)C(C)(C)CCC1 [Fenretinide] | 90.2 | 
CC1=C(/C=C/C(C)=C/C=C/C(C)=C/C(=O)Nc2ccc(O)cc2)C(C)(C)CCC1 | 81.8 | 
CCC(=O)O[C@H]1[C@H](O[C@@H]2[C@@H](C)[C@H](O[C@H]3C[C@@](C)(OC)[C@@H](O)[C@H](C)O3)[C@@H](C)C(=O)O[C@H](CC)[C@@](C)(O)[C@H](O)[C@@H](C)C(=O)[C@H](C)C[C@@]2(C)O)O[C@H](C)C[C@@H]1N(C)C | 97.5 | 
Nc1ncnc2c1ncn2[C@@H]1O[C@H](COP(=O)(O)O)[C@@H](O)[C@H]1O | 88.7 | 
C#C[C@]1(O)CC[C@H]2[C@@H]3[C@H](C)CC4=C(CCC(=O)C4)[C@H]3CC[C@@]21C [Tibolone] | 74.1 ± 14 | 
C#C[C@]1(O)CC[C@H]2[C@@H]3[C@H](C)CC4=C(CCC(=O)C4)[C@H]3CC[C@@]21C | 96.2 | 
Cn1cc(C(=O)OCC2CCN(CCNS(C)(=O)=O)CC2)c2ccccc21 | 83 | 
S=C=Nc1ccc(N=C=S)cc1 | 73.7 | 
O=c1cc(-c2ccccc2O)oc2cc(O)cc(O)c12 [5,7,2'-Trihydroxyflavone] |  | 59.2
CCCCC(=O)O[C@]1(C(=O)CO)[C@@H](C)C[C@H]2[C@@H]3CCC4=CC(=O)C=C[C@]4(C)[C@@]3(F)[C@@H](O)C[C@@]21C | 43.7 | 
CNCC[C@H](Oc1ccc(C(F)(F)F)cc1)c1ccccc1 [S-(+)-Fluoxetine hydrochloride] | 87.2 | 
COc1cc(C(=O)N2CCOCC2)cc(OC)c1OC | 68.6 | 
CC(=O)OCC(=O)[C@@]1(O)CC[C@H]2[C@@H]3CCC4=CC(=O)CC[C@]4(C)[C@H]3C(=O)C[C@@]21C | 71.4 | 
CC(=O)OCC(=O)[C@@]1(O)CC[C@H]2[C@@H]3CCC4=CC(=O)CC[C@]4(C)[C@H]3C(=O)C[C@@]21C [cortisone 21-acetate] |  | 70.6
CC(=O)OCC(=O)[C@@]1(O)CC[C@H]2[C@@H]3CCC4=CC(=O)CC[C@]4(C)[C@H]3C(=O)C[C@@]21C [Cortisone 21-acetate] | 78.1 | 
CC(=O)OCC(=O)[C@@]1(O)CC[C@H]2[C@@H]3CCC4=CC(=O)C=C[C@]4(C)[C@@]3(F)[C@@H](O)C[C@@]21C [Isoflupredone acetate] | 42.7 | 

No new results follow: entries from further up.
SMILES | HMGB1-induced TNF-alpha production (compound concentration: 3 uM) [%] | HMGB1-induced TNF-alpha production [1] [%]
CC1=C(/C=C/C(C)=C/C=C/C(C)=C/C(=O)Nc2ccc(O)cc2)C(C)(C)CCC1 [Fenretinide] | 90.2 | 
CC1=C(/C=C/C(C)=C/C=C/C(C)=C/C(=O)Nc2ccc(O)cc2)C(C)(C)CCC1 | 81.8 | 
CCC(=O)O[C@H]1[C@H](O[C@@H]2[C@@H](C)[C@H](O[C@H]3C[C@@](C)(OC)[C@@H](O)[C@H](C)O3)[C@@H](C)C(=O)O[C@H](CC)[C@@](C)(O)[C@H](O)[C@@H](C)C(=O)[C@H](C)C[C@@]2(C)O)O[C@H](C)C[C@@H]1N(C)C | 97.5 | 
Nc1ncnc2c1ncn2[C@@H]1O[C@H](COP(=O)(O)O)[C@@H](O)[C@H]1O | 88.7 | 
C#C[C@]1(O)CC[C@H]2[C@@H]3[C@H](C)CC4=C(CCC(=O)C4)[C@H]3CC[C@@]21C [Tibolone] | 74.1 ± 14 | 
C#C[C@]1(O)CC[C@H]2[C@@H]3[C@H](C)CC4=C(CCC(=O)C4)[C@H]3CC[C@@]21C | 96.2 | 
Cn1cc(C(=O)OCC2CCN(CCNS(C)(=O)=O)CC2)c2ccccc21 | 83 | 
S=C=Nc1ccc(N=C=S)cc1 | 73.7 | 
O=c1cc(-c2ccccc2O)oc2cc(O)cc(O)c12 [5,7,2'-Trihydroxyflavone] |  | 59.2
CCCCC(=O)O[C@]1(C(=O)CO)[C@@H](C)C[C@H]2[C@@H]3CCC4=CC(=O)C=C[C@]4(C)[C@@]3(F)[C@@H](O)C[C@@]21C | 43.7 | 
CNCC[C@H](Oc1ccc(C(F)(F)F)cc1)c1ccccc1 [S-(+)-Fluoxetine hydrochloride] | 87.2 | 
COc1cc(C(=O)N2CCOCC2)cc(OC)c1OC | 68.6 | 
CC(=O)OCC(=O)[C@@]1(O)CC[C@H]2[C@@H]3CCC4=CC(=O)CC[C@]4(C)[C@H]3C(=O)C[C@@]21C | 71.4 | 
CC(=O)OCC(=O)[C@@]1(O)CC[C@H]2[C@@H]3CCC4=CC(=O)CC[C@]4(C)[C@H]3C(=O)C[C@@]21C [cortisone 21-acetate] |  | 70.6

(continued)

SMILES | HMGB1-induced TNF-alpha production (compound concentration: 3 uM) [%] | HMGB1-induced TNF-alpha production [1] [%]
O=C1c2ccccc2C(=O)c2c(NCCc3ccc(O)cc3)ccc(NCCc3ccc(O)cc3)c21 | 90 | 
O=C1c2c(O)cc(O)cc2OC(c2ccc(O)c(O)c2)C1O (centres undefined) |  | 69.3
O=C1c2c(O)cc(O)cc2O[C@H](c2ccc(O)c(O)c2)[C@H]1O | 107 | 
O=C1c2c(O)cc(O)cc2O[C@H](c2ccc(O)c(O)c2)[C@H]1O (racemic) | 108 | 
CN(C)CCCOc1nn(Cc2ccccc2)c2ccccc12 | 70.4 | 
CN(C)CCCOc1nn(Cc2ccccc2)c2ccccc12 [Benzydamine hydrochloride] | 75.9 | 
CN(C)CCCOc1nn(Cc2ccccc2)c2ccccc12 [Benzydamine] | 75.2 | 
Nc1ccc(S(=O)(=O)Nc2ccc(Cl)nn2)cc1 [Sulfachloropyridazine] | 93.5 | 
Nc1ccc(S(=O)(=O)Nc2ccc(Cl)nn2)cc1 | 74.8 | 
CC1CCN=C(N)S1 (racemic) [(±)-AMT hydrochloride] | 93.3 | 
C[C@H]1C[C@H]2[C@@H]3CCC4=CC(=O)C=C[C@]4(C)[C@@]3(Cl)[C@@H](O)C[C@]2(C)[C@@]1(O)C(=O)CO [Beclomethasone] | 50.4 ± 5.3 | 
Oc1ccc(O)cc1 [Hydroquinone] | 51.3 | 
Oc1ccc(O)cc1 | 51.8 | 
COc1cc2nc(N3CCN(C(=O)C4CCCO4)CC3)nc(N)c2cc1OC (centres undefined) | 92.8 | 
COc1cc2nc(N3CCN(C(=O)C4CCCO4)CC3)nc(N)c2cc1OC (centres undefined) [Terazosin] | 94.8 ± 4.8 | 
COc1cc2nc(N3CCN(C(=O)C4CCCO4)CC3)nc(N)c2cc1OC (centres undefined) [Terazosin hydrochloride] | 102 ± 16 | 
CC1CCC(NC(=O)N(CCCl)N=O)CC1 (centres undefined) | 85.5 ± 3.2 | 
Cc1nc(N=Nc2ccc(C(=O)O)cc2)c(COP(=O)(O)O)c(C=O)c1O | 109 | 
CNCCC=C1c2ccccc2CCc2ccccc21 [Nortriptyline hydrochloride] | 75.8 ± 17 | 
CNCCC=C1c2ccccc2CCc2ccccc21 | 87.5 | 
C[C@H]1[C@H](NC(=O)/C(=N\OC(C)(C)C(=O)O)c2csc(N)n2)C(=O)N1S(=O)(=O)O | 85 ± 12 | 
C[C@H]1[C@H](NC(=O)/C(=N\OC(C)(C)C(=O)O)c2csc(N)n2)C(=O)N1S(=O)(=O)O [Aztreonam] | 92.1 ± 2.1 | 
CCc1c2c(nc3ccc(OC(=O)N4CCC(N5CCCCC5)CC4)cc13)-c1cc3c(c(=O)n1C2)COC(=O)[C@]3(O)CC [Irinotecan Hydrochloride] | 96.7 | 
CCc1c2c(nc3ccc(OC(=O)N4CCC(N5CCCCC5)CC4)cc13)-c1cc3c(c(=O)n1C2)COC(=O)[C@]3(O)CC [IRINOTECAN HCl )trihydrate)] | 97.8 | 
